{"source": "PubChem BioAssay AID1347076", "about": "(National Center for Advancing Translational Sciences (NCATS), 2019)", "note": "The whole screen tested about 400,000 compounds, of which about 13,000 (3.2%) were called active. Inconclusive means that the source gave no clear call. Such entries were picked first, then a sample of the others. The call rests on the fitted dose curve; in most records, active means well fitted cell-killing curve with a large enough effect; inconclusive means small, poorly fitted or top-dose-only effect, or effect the other way; inactive means flat fitted curve, though single readings scatter. A potency beside an inconclusive call is a rough fit, not a confirmed value. On the % scale 0 is the no-effect control and ±100 the full control effect; potency means the concentration at half of the fitted maximal effect."}
{"experiment": "qHTS assay for MDR1-selective chemotherapeutics: Primary screen using the drug-selected MDR subline cells KB-V1; further: nearly all actives have a fitted effect of over 60% in size", "details": "KB-V1 MDR cells viability, CellTiter-Glo, 72 h; activity change, negative = cytotoxicity: at 46.1 µM (top of the series)", "method_in_brief": "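Compound-treated KB-V1 multidrug-resistant cells, 72 h, 37 degrees C; viability by CellTiter-Glo. Fitted qHTS curves give the values.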"}
{"smiles": "O=[N+]([O-])c1ccc(C2Nc3cccc4cccc(c34)N2)cc1", "activity change, negative = cytotoxicity": "inactive: -26.7%"}
{"smiles": "CC(C)(C)N1C(=O)c2ccc(C(=O)Nc3cc(C(=O)O)cc(C(=O)O)c3)cc2C1=O", "activity change, negative = cytotoxicity": "inactive: 18.5%"}
{"smiles": "COc1ccc(-c2cnc(C)o2)cc1S(=O)(=O)Nc1ccc(C)c(N(C)C)c1", "activity change, negative = cytotoxicity": "inactive: -11.2%"}
{"smiles": "COc1cccc(NC(=S)N(CCc2c(C)[nH]c3ccc(C)cc23)Cc2cccs2)c1", "Potency": "inconclusive: 29.1 µM [cytotoxic, single point]"}
{"smiles": "Cn1c(N2CCN(C(c3ccccc3)c3ccccc3)CC2)nc2ccccc21", "Potency": "inconclusive: 16.4 µM [cytotoxic, partial curve]"}
{"smiles": "CCOc1ccc(NC(=O)C(C)Oc2ccc(C#N)cc2)cc1S(=O)(=O)N1CCCC1", "note": "(stereo unspecified)", "Potency": "inconclusive: 32.6 µM [cytotoxic, single point]"}
{"smiles": "CC1=NNC(=O)C1CC(=O)N/N=C/C=C/c1ccccc1", "note": "(stereo unspecified)", "activity change, negative = cytotoxicity": "inactive: -0.422%"}
{"smiles": "CCCCCCN1C(=O)CC(NC(=O)OCC2c3ccccc3-c3ccccc32)C/C=C\\C1C(C)C", "note": "(stereo unspecified)", "Potency": "inconclusive: 23.1 µM [cytotoxic, partial curve, poor fit]"}
{"smiles": "CCN(c1ccccc1C)S(=O)(=O)c1cc2c3c(c1)CCN3C(=O)CC2", "Potency": "inconclusive: 14.6 µM [cytotoxic, single point]"}
{"smiles": "O=C(Nc1cccc(S(=O)(=O)N2CCOCC2)c1)c1cc(=O)[nH]c2ccccc12", "Potency": "inconclusive: 29.1 µM [rising, single point]"}
{"smiles": "CCN(CC)c1ccc(C(=O)OCC(=O)Nc2cccc(S(=O)(=O)NC3=NCCCCC3)c2)cc1", "Potency": "active: 20.6 µM"}
{"smiles": "Cc1cc2ncn(/N=C/c3ccc([N+](=O)[O-])o3)c2cc1C", "Potency": "inconclusive: 29.1 µM [cytotoxic, partial curve, poor fit]"}
{"smiles": "COc1ccccc1N1CCN(C(=O)CSc2nnc(C)n2C2CC2)CC1", "Potency": "inconclusive: 18.4 µM [rising, single point]"}
{"smiles": "O=Cc1c(N2CCN(CCO)CC2)nc2ccccn2c1=O", "Potency": "inconclusive: 7.31 µM [rising, partial curve, poor fit]"}
{"smiles": "CCc1ccc(-n2c(=O)c3c4c(sc3n(CC(=O)NC(C)CC)c2=O)CCCC4)cc1", "note": "(stereo unspecified)", "activity change, negative = cytotoxicity": "inactive: 12.6%"}
{"smiles": "CCCc1ccc(OCCNC(=O)C2CCCCC2)cc1", "Potency": "inconclusive: 25.9 µM [rising, single point]"}
{"smiles": "Cc1ccc(OCCN(C)C(=O)C2CCC(=O)N(Cc3ccccc3F)C2)cc1", "note": "(stereo unspecified)", "Potency": "inconclusive: 13 µM [cytotoxic, partial curve]"}
{"smiles": "CCN(CC)S(=O)(=O)c1ccc(C(=O)NCCc2cc3c(OC)ccc(OC)c3[nH]c2=O)cc1", "Potency": "active: 7.31 µM"}
{"smiles": "COCCNc1ccc(-c2nn(C)c(=O)c3ccccc23)cc1[N+](=O)[O-]", "Potency": "inconclusive: 1.84 µM [cytotoxic, full curve]"}
{"smiles": "O=C(NCCc1ccc(O)c(Br)c1)c1ccc(Br)o1", "activity change, negative = cytotoxicity": "inactive: -13.9%"}
{"smiles": "CC(C)NC(=O)N(C)C[C@H]1Oc2c(NC(=O)Nc3ccc(C(F)(F)F)cc3)cccc2C(=O)N([C@H](C)CO)C[C@@H]1C", "Potency": "inconclusive: 0.517 µM [rising, full curve, poor fit]"}
{"smiles": "Cn1c(=O)[nH]c2cc(-c3noc(-c4ccc(F)cc4)n3)ccc21", "activity change, negative = cytotoxicity": "inactive: -11.5%"}
{"smiles": "COc1ccc(N2CCN(CC(=O)Nc3cccc(S(=O)(=O)N4CCOCC4)c3)CC2)cc1", "Potency": "active: 10.3 µM"}
{"smiles": "CCOC(=O)C1CCN(C(=O)c2ccc(OC3CCN(C(=O)COC)CC3)cc2)CC1", "activity change, negative = cytotoxicity": "inactive: 12.8%"}
{"smiles": "Cc1cc(O)c(C(C)C)cc1C1(c2cc(C(C)C)c(O)cc2C)OC(=O)c2ccccc21", "Potency": "inconclusive: 29.1 µM [cytotoxic, single point]"}
{"smiles": "CCN(CC)C(=O)C1=C(C)N(Cc2ccc(OC)cc2)C(=O)C(CC(=O)NCCCN(C)C)C1", "note": "(stereo unspecified)", "activity change, negative = cytotoxicity": "inactive: 8.81%"}
{"smiles": "O=C1N=NC2=C1c1c3ccccc3c(O)n1CC2", "activity change, negative = cytotoxicity": "inactive: 13.3%"}
{"smiles": "CN(C(=O)COC(=O)c1ccc(C(C)(C)C)cc1)C1CCS(=O)(=O)C1", "note": "(stereo unspecified)", "activity change, negative = cytotoxicity": "inactive: 14.8%"}
{"smiles": "Cc1cccc(N2CCCn3c2nc2c3c(=O)n(CCN3CCOCC3)c(=O)n2C)c1", "Potency": "inconclusive: 8.2 µM [cytotoxic, partial curve]"}
{"smiles": "CCOc1ccc(OCC(=O)N2CCN(S(=O)(=O)c3ccccc3)CC2)cc1", "Potency": "inconclusive: 29.1 µM [cytotoxic, single point]"}
{"smiles": "CCn1c(Cc2ccccc2)nnc1SCC(=O)Nc1ccccc1", "Potency": "active: 20.6 µM"}
{"smiles": "O=C1C=C(Nc2ccccc2)C(=O)c2ccccc21", "Potency": "inconclusive: 29.1 µM [cytotoxic, single point]"}
{"smiles": "CS(=O)(=O)N(CC(=O)N1CCCCCC1)Cc1ccc(Cl)cc1", "Potency": "active: 5.17 µM"}
{"smiles": "O=C(CSc1nc2c(cnn2-c2cccc(Cl)c2)c(=O)[nH]1)NCC1CCCO1", "note": "(stereo unspecified)", "Potency": "inconclusive: 29.1 µM [rising, single point]"}
{"smiles": "Cn1c(COc2ccc(Br)cc2)nnc1SC1CCc2ccccc2C1=O", "note": "(stereo unspecified)", "Potency": "active: 16.4 µM"}
{"smiles": "Cc1ccc(SCCNC(=O)c2ccc([N+](=O)[O-])c(C)c2)cc1", "activity change, negative = cytotoxicity": "inactive: -15.2%"}
{"smiles": "O=C(Nc1ccccc1Br)C1CC(=O)N(c2ccc3c4c(cccc24)CC3)C1", "note": "(stereo unspecified)", "Potency": "inconclusive: 9.2 µM [cytotoxic, partial curve, poor fit]"}
{"smiles": "CCCn1c(C(O)c2ccc(OC)cc2)nc2ccccc21", "note": "(stereo unspecified)", "Potency": "inconclusive: 20.6 µM [cytotoxic, partial curve, poor fit]"}
{"smiles": "Cc1c(Cc2ccccc2)c(=O)oc2cc(OCC(=O)N3CCC(C(N)=O)CC3)ccc12", "activity change, negative = cytotoxicity": "inactive: -15%"}
{"smiles": "COCC(=O)Nc1ccccc1C(=O)Nc1ccc(OC)cc1", "Potency": "inconclusive: 23.1 µM [cytotoxic, single point]"}
{"smiles": "COc1ccc(CN(CCC(c2ccccc2)C2CCOC(C)(C)C2)C(C)=O)cc1", "note": "(stereo unspecified)", "activity change, negative = cytotoxicity": "inactive: -12.6%"}
{"smiles": "CCOC(=O)c1c(C)[nH]c(C)c1C(=O)COC(=O)CNC(=O)C1CCCCC1", "activity change, negative = cytotoxicity": "inactive: 6.78%"}
{"smiles": "O=C(CCn1nnc2ccccc21)Nc1nnc(Cc2ccccc2)s1", "Potency": "active: 16.4 µM"}
{"smiles": "Cn1c(CN2CCCCC2)nc2cc(NC(=O)c3ccc(F)cc3)ccc21", "Potency": "active: 20.6 µM"}
{"smiles": "COc1ccc(OC)c(CN2C(=O)c3ccccc3C2c2nnnn2-c2c(C)cccc2C)c1", "note": "(stereo unspecified)", "Potency": "inconclusive: 8.2 µM [cytotoxic, partial curve]"}
{"smiles": "O=C1COc2ccc(C(=O)COC(=O)CNC(=O)c3ccco3)cc2N1", "activity change, negative = cytotoxicity": "inactive: 1.02%"}
